The text below walks through data of the supplement of paper PMC12889115.

This is one part of the list. Values are raw readings; no control value is given beside them.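 In the initial screen, polymyxin B was used at a concentration that permeabilizes Salmonella's outer membrane but not its inner membrane. Maximum growth was set by DMSO wells with or without polymyxin B. Since plates varied, data were ranked per plate, and compounds giving the lowest OD600 advanced as hits.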

For the test, the system named is Salmonella enterica serovar Typhimurium SL1344. Description: bacterial growth OD600 after 18 h with compound and polymyxin B; higher = more bacterial growth (less inhibition). The settings on record: 50 µM, Mueller-Hinton broth.

Turning to `COCCNC(=O)c1cccc(OC2CCN(Cc3ccc(C(=O)OC)cc3)CC2)c1`, for the setting “polymyxin B 0.75 µg/mL”, the “bacterial growth OD600” value worked out at 1.01.

As to `O=C(Nc1cccc(-n2cccn2)c1)C1CCCN1CCCC(F)(F)F` (configuration not stated), the “bacterial growth OD600” value (polymyxin B 0.75 µg/mL) came out at 0.766.

As for `O=C(NCC1CCCN(C(=O)C2CCOCC2)C1)c1ccc(-c2ccccc2)cc1` (configuration not stated), where the note is “polymyxin B 1 µg/mL”, the “bacterial growth OD600” value came to 0.92.

For `COCCCNc1nc2nonc2nc1N1CCN(Cc2ccccc2OC)CC1`, the “bacterial growth OD600” value (polymyxin B 1 µg/mL) amounted to 1.12.

Turning to `COC(=O)CSc1ncc(-c2ccc(F)cc2)c(C2CCCN(C(=O)c3csc(C)n3)C2)n1` (configuration not stated), the “bacterial growth OD600” value (polymyxin B 0.75 µg/mL) is 0.511.

Consider `COc1ccc(CCN2C(=O)O[C@@H]3CN(c4nc(OC)cc(OC)n4)C[C@@H]32)cc1`, for which the “bacterial growth OD600” value (polymyxin B 1 µg/mL) was 0.877.

As for `O=C1CCC(C(=O)N2CCC3(CCCN(CCCc4ccccc4)C3)C2)=NN1` (configuration not stated), the “bacterial growth OD600” value (polymyxin B 1 µg/mL) worked out at 0.864.

Turning to `O=C(CC1CCCC1)N1CCC2(CCCN(Cc3ccccc3F)C2=O)C1` (configuration not stated), the “bacterial growth OD600” value (polymyxin B 1 µg/mL) is 0.941.

Consider `COc1ccccc1CN1CCc2c([nH]c3ccccc23)C1c1cccc(O)c1` (configuration not stated), for which the “bacterial growth OD600” value (polymyxin B 0.75 µg/mL) was -0.002.

For `O=C(CCC1CCCN(C(=O)Cc2ccsc2)C1)NCc1ccccc1Cl` (configuration not stated), the “bacterial growth OD600” value (polymyxin B 1 µg/mL) worked out at 0.929.

On to `CCC(C)NC(=O)N1CCc2[nH]nc(-c3ccc(Cl)cc3)c2C1` (configuration not stated), for which, under “polymyxin B 0.75 µg/mL”, the “bacterial growth OD600” value turned out to be 0.732.

On to `Cc1ccccc1CC(=O)N1CCC2(CC1)CC2C(=O)NCCCc1ccccc1` (configuration not stated), for which the “bacterial growth OD600” value (polymyxin B 0.75 µg/mL) came out at 0.011.

As for `CC(C)c1nc2cccnc2n1C1CCN(C(=O)C2CCCCN2C)CC1` (configuration not stated), the “bacterial growth OD600” value (polymyxin B 0.75 µg/mL) came to 0.863.

For the compound `CCn1ccnc1CN1CCCC(CCC(=O)Nc2ccc(OC)cc2C)C1` (configuration not stated), where the note is “polymyxin B 1 µg/mL”, the “bacterial growth OD600” value was found to be 0.961.

For `O=C(Cc1cn2ccsc2n1)NC1CCCN(C2CCCCCC2)C1` (configuration not stated), where the note is “polymyxin B 1 µg/mL”, the “bacterial growth OD600” value worked out at 0.949.

Take `CC(=O)c1ccc(C(=O)N2CCCC(CCc3ccccc3)C2)s1` (configuration not stated): the “bacterial growth OD600” value (polymyxin B 0.75 µg/mL) came out at 0.183.

Turning to `O=C(CCC1CCN(Cc2ccc(CO)o2)CC1)Nc1ccccc1Cl`, where the note is “polymyxin B 1 µg/mL”, the “bacterial growth OD600” value stood at 0.814.

In the case of `CC(=O)N1CCCC(C(=O)Nc2cccc(-c3cc4ccccc4[nH]3)c2)C1` (configuration not stated), the “bacterial growth OD600” value (polymyxin B 0.75 µg/mL) worked out at 0.971.

As for `O=C(CCN1CCCCO1)N1CCCC(CCc2ccc(F)c(F)c2)C1` (configuration not stated), the “bacterial growth OD600” value (polymyxin B 0.75 µg/mL) worked out at 0.007.

Consider `COc1ccc(CNC(=O)c2ccc(OC)c(OC3CCN(C(C)C)CC3)c2)cc1OC`, for which the “bacterial growth OD600” value (polymyxin B 1 µg/mL) came out at 1.16.

With `COCCOC1CCN(Cc2nc(-c3cccc(Cl)c3)no2)CC1`, the “bacterial growth OD600” value (polymyxin B 1 µg/mL) is 0.968.

Take `CC(=O)N1CCC(C(=O)N2CCCC(C(=O)c3ccc(C(F)(F)F)cc3)C2)CC1` (configuration not stated): the “bacterial growth OD600” value (polymyxin B 1 µg/mL) was determined as 0.769.

Consider `CCOC(=O)C1(CC2CC2)CCN(Cc2c[nH]nc2-c2cccc(F)c2)CC1`, for which the “bacterial growth OD600” value (polymyxin B 1 µg/mL) turned out to be 0.792.

For `CCCCc1nc2cc(C(=O)N3CCC(O)CC3)ccc2o1`, the “bacterial growth OD600” value (polymyxin B 1 µg/mL) was found to be 0.862.

In the case of `COC(=O)CCCNC(=O)c1ccc2nc(-c3cccc(OC)c3)oc2c1`, the “bacterial growth OD600” value (polymyxin B 1 µg/mL) was determined as 0.863.

For `Cc1ncc(CNCc2cccnc2Oc2ccc(F)c(F)c2)cn1`, under “polymyxin B 0.75 µg/mL”, the “bacterial growth OD600” value was determined as 0.839.

With `COc1ccccc1/C=C/CN1CCNC(=O)C1CC(=O)N1CCCC1` (configuration not stated), the “bacterial growth OD600” value (polymyxin B 1 µg/mL) worked out at 0.997.

With `O=C1N(CCC2CCCCC2)CCCC1(O)CN1CCCC1` (configuration not stated), for the setting “polymyxin B 0.75 µg/mL”, the “bacterial growth OD600” value was determined as 0.857.

In the case of `COc1ccc(CN2C(=O)O[C@@H]3CN(C4CCCCC4)C[C@@H]32)cc1OC`, the “bacterial growth OD600” value (polymyxin B 1 µg/mL) came to 1.11.

Consider `CN(Cc1ccccc1)c1ncccc1CNC(=O)CN1CCCC1=O`, for which, where the note is “polymyxin B 1 µg/mL”, the “bacterial growth OD600” value turned out to be 1.

Take `CN(Cc1cnccn1)C(=O)c1csc2nc(-c3ccccc3Cl)cn12`: the “bacterial growth OD600” value (polymyxin B 1 µg/mL) turned out to be 1.15.

As to `CN(C)S(=O)(=O)NC1CC(=O)N(CCc2cccc(Cl)c2)C1` (configuration not stated), the “bacterial growth OD600” value (polymyxin B 1 µg/mL) stood at 0.916.
